Reference: PubChem BioAssay AID1117319 (Southern Research Institute, 2015)
The whole screen tested about 260,000 compounds, of which about 1,500 (0.58%) were called active. Inconclusive results, whose numbers are uncertain, are shown with a selection of clear calls.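 How the source made its calls: active means inhibition above a set limit at one or more doses, reproduced on every date tested; inconclusive means results disagree between test dates, or hit never tested in dose response; inactive means the rest.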

Chains of the proteins cited; added tags and fusions are not shown. Lines headed by an entry give the natural chain unless they say otherwise; changes in a name come on top.
UniProt P69720: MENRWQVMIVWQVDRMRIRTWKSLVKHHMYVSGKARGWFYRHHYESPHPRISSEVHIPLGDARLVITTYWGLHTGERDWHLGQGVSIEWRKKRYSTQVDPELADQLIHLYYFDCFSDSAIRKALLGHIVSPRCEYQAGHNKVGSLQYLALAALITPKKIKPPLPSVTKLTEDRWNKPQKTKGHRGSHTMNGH
UniProt P69721: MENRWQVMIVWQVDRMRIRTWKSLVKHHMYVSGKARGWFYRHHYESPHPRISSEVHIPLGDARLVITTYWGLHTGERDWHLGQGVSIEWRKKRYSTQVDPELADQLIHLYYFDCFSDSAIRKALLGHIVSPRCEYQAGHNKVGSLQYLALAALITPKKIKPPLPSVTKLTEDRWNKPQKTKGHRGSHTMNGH
UniProt P69722: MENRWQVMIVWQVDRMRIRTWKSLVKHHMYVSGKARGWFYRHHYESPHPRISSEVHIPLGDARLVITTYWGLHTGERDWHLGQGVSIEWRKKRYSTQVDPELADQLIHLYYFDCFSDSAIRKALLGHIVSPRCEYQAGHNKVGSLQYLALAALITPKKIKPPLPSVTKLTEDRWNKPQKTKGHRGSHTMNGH
UniProt P69723: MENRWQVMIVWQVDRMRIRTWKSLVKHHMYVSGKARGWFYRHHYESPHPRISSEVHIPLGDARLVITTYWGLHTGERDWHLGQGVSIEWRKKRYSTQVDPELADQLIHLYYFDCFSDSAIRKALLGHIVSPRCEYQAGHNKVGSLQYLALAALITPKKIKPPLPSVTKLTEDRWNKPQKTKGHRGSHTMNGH
UniProt Q9HC16: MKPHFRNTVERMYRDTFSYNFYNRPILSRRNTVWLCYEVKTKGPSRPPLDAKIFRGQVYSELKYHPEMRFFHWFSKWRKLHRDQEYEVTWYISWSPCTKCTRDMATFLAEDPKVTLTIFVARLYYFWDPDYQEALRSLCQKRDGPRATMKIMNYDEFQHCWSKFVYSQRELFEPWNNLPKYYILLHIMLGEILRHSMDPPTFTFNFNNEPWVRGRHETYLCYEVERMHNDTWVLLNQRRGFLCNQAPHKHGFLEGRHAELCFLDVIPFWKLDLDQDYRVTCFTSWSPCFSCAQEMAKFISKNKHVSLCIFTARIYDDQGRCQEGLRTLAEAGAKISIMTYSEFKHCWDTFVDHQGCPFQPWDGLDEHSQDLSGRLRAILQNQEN

Target: Virion infectivity factor (Human immunodeficiency virus type 1 group M subtype B (isolate BH10)) + Virion infectivity factor (Human immunodeficiency virus type 1 group M subtype B (isolate BRU/LAI)) + Virion infectivity factor (Human immunodeficiency virus type 1 group M subtype B (isolate PCV12)) + Virion infectivity factor (Human immunodeficiency virus type 1 group M subtype B (isolate HXB2)) + DNA dC->dU-editing enzyme APOBEC-3G (Homo sapiens) (UniProt P69720+P69721+P69722+P69723+Q9HC16)
Assay: inhibitors of Vif binding to APOBEC3G peptide, primary screen, biochemical, TR-FRET, GST-Vif 1-94, biotin-A3G peptide, dose response retest (AID 1117319);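 further: Vif residues 1-94 fused to GST binding biotinylated APOBEC3G peptide 110-148; 0% = full assay without inhibitor and 100% = GST in place of GST-Vif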
Conditions: active compounds read high

Structure (SMILES) | inhibition
FC(F)(F)c1cnc(Oc2ccccc2-c2nnc(-c3ccc(Cl)cc3)o2)c(Cl)c1 | inconclusive: 35.9%
CC1=C(C#N)c2nc(N)c(C#N)c(C)c2/C1=C\c1ccc(-c2ccccc2C(=O)O)o1 | inconclusive: 64.6%
CC(C)[C@H](NS(=O)(=O)c1ccccc1)C(=O)OCC(=O)NC(=O)c1cccn1C | inconclusive: 61.1%
CC1(c2ccccc2Cl)NC(=O)N(CC(=O)NCCC2=CCCCC2)C1=O (configuration not stated) | inconclusive: 37.8%
CC(=O)Nc1ccc(S(=O)(=O)Nc2nc3ccccc3nc2Nc2ccc(O)cc2)cc1 | inactive: -3.02%
COc1ccccc1-c1nnc2n1N=C(c1ccc(O)c(O)c1)CS2 | inconclusive: 34.4%
O=C(NC(Cc1ccccc1)C(=O)O)/C(=C\c1ccco1)NC(=O)c1ccccc1 (configuration not stated) | inconclusive: 36.6%
CCCC(=O)N1c2ccccc2C(=C2SC(C(=O)OC)=C(C(=O)OC)S2)C(=S)C1(C)C | inconclusive: 55.1%
O=C1OC(Nc2ncccn2)c2ccccc21 (configuration not stated) | inconclusive: 61.7%
COc1ccccc1NC(=S)NNC(=O)c1ccc(O)cc1 | inconclusive: 51.2%
CCOC(=O)CSc1nc2cc(C(=O)OC)ccc2c(=O)n1CCN1CCOCC1 | inconclusive: 38.4%
Nc1cc(-c2nn[nH]n2)ccc1F | inconclusive: 53.7%
CCOC(=O)c1c(C)[nH]c(C(=O)COC(=O)c2ccc(N3CCCC3=O)cc2)c1C | inconclusive: 62.8%
Cc1ccc(CSc2nc3ccncc3n2CC(=O)Nc2cc(C)cc(C)c2)cc1 | inactive: -48.6%
C/C(=N\NC(=O)c1nn(C)c(C)c1Br)c1ccc(NC(=O)c2ccccc2F)cc1 | inconclusive: 37%
COc1cc(C)cc2c1OC(c1ccccc1)CC2=O (configuration not stated) | inactive: -0.37%
O=C(Nc1cccc(-c2ccc3nncn3n2)c1)c1ccco1 | inconclusive: 57.5%
CCc1ccccc1NC(=O)c1nnn(CC(=O)Nc2cccc(C)c2C)c1N | inconclusive: 34.5%
Cc1ccc(S(=O)(=O)N2CC3(C)CN(S(=O)(=O)c4ccc(C)cc4)CC(C)(C2)C3O)cc1 (configuration not stated) | inconclusive: 34.3%

Individual results from the list.
In inhibition, `Cc1ccc(S(=O)(=O)N2CC3(C)CN(S(=O)(=O)c4ccc(C)cc4)CC(C)(C2)C3O)cc1` (configuration not stated) has inconclusive: 34.3%
In inhibition, `CC1(c2ccccc2Cl)NC(=O)N(CC(=O)NCCC2=CCCCC2)C1=O` (configuration not stated) has inconclusive: 37.8%

Carrying on:

Structure (SMILES) | inhibition
COc1ccc(N(C)S(=O)(=O)c2cccc(C(=O)NC3=NCCS3)c2)cc1 | inconclusive: 33.8%
Cc1ccccc1NC(=O)c1ccc2c(c1)OCCO2 | inconclusive: 44.5%
Cc1csc(NC(=O)c2cc(-c3ccco3)nc3ccccc23)n1 | inconclusive: 55.4%
CCc1sc(C(=O)N2CCN(S(C)(=O)=O)CC2)cc1Br | inconclusive: 57.5%
Cc1ccc(C(=O)/C=C/N(C)C)cn1 | inconclusive: 45.7%
Cc1nc(N)nc(Nc2ccc(C#N)cc2)c1Br | inconclusive: 54.5%
Cc1cc(/C=C(\C#N)C(=O)OCC(=O)NC(=O)NC(C)(C)C)c(C)n1CCC(C)C | inconclusive: 45.1%
Cc1ccsc1/C=C/c1ccc2ccccc2n1 | inconclusive: 60.1%
CCOC(=O)C1CCCN(c2ncnc3c2cnn3-c2ccc(OC)cc2)C1 (configuration not stated) | inactive: -2.45%
COCCn1c(SCC(=O)c2cccc(OC)c2)nnc1-c1ccco1 | inconclusive: 38.3%
CC(=O)Nc1ccc(C(=O)OCC(=O)NCc2cccs2)cc1 | inconclusive: 43.4%
CCOC(=O)C1(C(C)(C)CC)CC(CSc2nc3ccccc3[nH]2)OC1=O (configuration not stated) | inconclusive: 33.1%
CC(=O)Nc1ccc(S(=O)(=O)N2CCN(CCN3CCOCC3)CC2)cc1Cl | inconclusive: 43.7%
Cc1[nH]n(-c2ccccc2)c(=O)c1C(c1cccc([N+](=O)[O-])c1)c1c(C)[nH]n(-c2ccccc2)c1=O | inconclusive: 39.2%
COc1ccccc1N1CCN(C(c2ccccc2)c2nnnn2CCc2ccccc2)CC1 (configuration not stated) | inconclusive: 41.5%
N#CCC(=O)N/N=C/c1cn(Cc2ccc(Cl)cc2Cl)c2ccccc12 | inconclusive: 36%
COC(=O)CCC(=O)OC1(C)C(=O)C2=CN(CC3CC3)C(c3ccc(OC)cc3)=CC2=C(Br)C1=O (configuration not stated) | inconclusive: 47.2%
CCC(=O)Nc1ccc(C(=O)COC(=O)c2nc3nccc(C)n3n2)cc1 | inconclusive: 54.7%
COc1ccc(NC(=O)CSc2nc(O)cc(=O)n2-c2ccccc2OC)cc1 | inconclusive: 33%

Structure (SMILES) | inhibition
Cc1ccc(CC(=O)NNC(=O)c2cccs2)cc1C | inactive: -2.08%
CNC(=O)c1c(NC(=O)CS(=O)(=O)c2ccccc2)sc(C)c1C | inactive: 2.6%
O=C(N/N=C\c1ccc(Cl)cc1)c1sccc1-n1cccc1 | inconclusive: 47.1%
COc1cccc(-c2nnc3sc(-c4ccco4)nn23)c1 | inactive: 5.27%
Cc1nn(-c2ccccn2)c2c1C(c1ccncc1)C1=C(CC(C)(C)CC1=O)N2 (configuration not stated) | inconclusive: 47.9%
COC(=O)c1cccc(S(=O)(=O)N2CCOCC2)c1 | inconclusive: 62%
N#CCn1c(C2CCCCC2)nc2ccccc2c1=O | inconclusive: 36%
O=C(CNS(=O)(=O)c1ccc(Br)s1)NCc1ccc2c(c1)OCO2 | inconclusive: 42.2%
COc1cccc(/C=N/n2nnc3c(cnn3-c3ccccc3)c2=O)c1 | inconclusive: 36%
COc1ccc(-c2nc(C(N)=O)c3[nH]c(=O)n(-c4cccc(C)c4)c3n2)c(OC)c1 | inconclusive: 55.6%
CCCc1nc2c(o1)CC(CC(C)SCC)CC2=O (configuration not stated) | inconclusive: 45%
CCCN1CN=C(Nc2nc3ccccc3o2)NC1 | inconclusive: 54.6%
O=C(Cc1ccccc1)NCc1cccnc1 | inconclusive: 61.4%
Cc1ccc(S(=O)(=O)N(Cc2ccc(Cl)cc2)c2ccccc2C(=O)NCc2cccnc2)cc1 | inconclusive: 35.4%
Nc1ccc(S(=O)(=O)c2ccc(N)cc2)cc1 | inactive: -4.69%
COc1cc(OC)c(OC)cc1CNC1CCCCCC1 | inconclusive: 33%
Cc1ccc(/C=C/C(=O)N2CCc3ccccc32)o1 | inconclusive: 49.4%
COc1cc(C(=O)O)cc(Br)c1OC1CCCC1 | inconclusive: 33.6%
O=C(O)CCCC(=O)Nc1c(F)c(F)c(F)c(F)c1F | inactive: 3.4%

In a second layout: results already given.
Structure (SMILES),inhibition
CNC(=O)c1c(NC(=O)CS(=O)(=O)c2ccccc2)sc(C)c1C,inactive: 2.6%
COC(=O)c1cccc(S(=O)(=O)N2CCOCC2)c1,inconclusive: 62%
Cc1ccc(S(=O)(=O)N(Cc2ccc(Cl)cc2)c2ccccc2C(=O)NCc2cccnc2)cc1,inconclusive: 35.4%
COc1cc(C(=O)O)cc(Br)c1OC1CCCC1,inconclusive: 33.6%
